The assay has as its system BDF1 mice, P1081 chloroleukemia ip, survival T/C. Briefly: NCI In Vivo Anticancer Drug Screen. Data for tumor model P1081 Chloroleukemia (intraperitoneal) in B6D2F1 (BDF1) mice. As to conditions: T/C endpoint: mean survival time, higher T/C = longer survival. The method, then: The antitumor activity of compounds was measured in mice bearing transplantable tumors. Survival or tumor size were measured and the results are expressed as the measurement made in the treated group (T) divided by the measurement made in the vehicle treated control group (C). The tumor model used in this assay is P1081 Chloroleukemia (intraperitoneal) in B6D2F1 (BDF1) mice

Where [1] appears, read: dose: 6.25 mg/kg/injection, schedule: Q01DX010 (ip), vehicle: saline.
Where [2] appears, read: dose: 0.12 mg/kg/injection, schedule: Q01DX Z (ip), vehicle: carboxymethylcellulose (CMC).
The mark [3] stands for this setting: dose: 0.5 mg/kg/injection, schedule: Q01DX Z (ip), vehicle: carboxymethylcellulose (CMC).
Setting [4] is: dose: 80.0 mg/kg/injection, schedule: Q01DX010 (ip), vehicle: saline.
Setting [5] is: dose: 125.0 mg/kg/injection, schedule: Q01DX010 (ip), vehicle: saline.
Setting [6] is: dose: 16.0 mg/kg/injection, schedule: Q01DX Z (ip), vehicle: carboxymethylcellulose (CMC).

The list does not hold the whole screen: it is rich in T/C values a quarter to a half above the control, in often repeated tests (any T/C) and in doses without a T/C. Further doses and runs are listed elsewhere. T/C gives the treated animals as a percentage of the vehicle group. Some entries give survivors of the animals treated and no T/C: the source files T/C as zero there, which appears to mark a toxic dose or a test without result, not a measured value. Some survivor counts are full or nearly so, which does not show that the dose was tolerated: survival well below the control is almost never listed, so the zero probably covers shortened survival too. Counts of survivors are from the toxicity check (mostly the fifth day) where no day follows; animals may have died later. Schedule codes are those of the source, taken here to give the interval after Q, in days (D) or hours (H), and the number of doses after X. Some schedules carry Z or #; the key to these is not given. Where survival is the endpoint, the PubChem record calls one and a half times the control and up active, and a quarter to a half above the control has no call in these data; cut-offs in other NCI protocols can differ. Some T/C values carry the count of animals alive at the toxicity check (mostly the fifth day); where none is given, no animal had died by that day.

As for `CC/C(=C(/CC)c1ccc(O)cc1)c1ccc(O)cc1`, the survivor count runs as follows: (dose: 31.0 mg/kg/injection, schedule: Q01DX Z (sc), vehicle: steroid suspending solution) 6 of 6; (dose: 62.0 mg/kg/injection, schedule: Q01DX Z (sc), vehicle: steroid suspending solution) 6 of 6; (dose: 100.0 mg/kg/injection, schedule: Q01DX010 (ip), vehicle: saline) 6 of 6; (dose: 125.0 mg/kg/injection, schedule: Q01DX Z (sc), vehicle: steroid suspending solution) 6 of 6; (dose: 250.0 mg/kg/injection, schedule: Q01DX Z (sc), vehicle: steroid suspending solution) 6 of 6; (dose: 500.0 mg/kg/injection, schedule: Q01DX Z (sc), vehicle: steroid suspending solution) 4 of 6. The survivor count (dose: 1000.0 mg/kg/injection, schedule: Q01DX Z (sc), vehicle: steroid suspending solution) is 5 of 6.

As for `CCCNc1ncnc2[nH]ncc12`, the survivor count (dose: 3.13 mg/kg/injection, schedule: Q01DX010 (ip), vehicle: saline) was 6 of 6; the survivor count under setting [1] was 5 of 6; the survivor count (dose: 12.5 mg/kg/injection, schedule: Q01DX010 (ip), vehicle: saline) is recorded as 6 of 6; the survivor count (dose: 25.0 mg/kg/injection, schedule: Q01DX010 (ip), vehicle: saline) is reported as 6 of 6; the survivor count (dose: 40.0 mg/kg/injection, schedule: Q01DX Z (ip), vehicle: water) is listed as 6 of 6.

Regarding `Nc1nc(=S)c2[nH]cnc2[nH]1`, the T/C was 134 % of control under setting [2]; 147 % of control under setting [3]; 127 % of control (dose: 1.25 mg/kg/injection, schedule: Q01DX010 (ip), vehicle: other); 146 % of control (dose: 125.0 micrograms/kg/injection, schedule: Q01DX Z (ip), vehicle: carboxymethylcellulose (CMC)). The survivor count is 6 of 6 (dose: 2.0 mg/kg/injection, schedule: Q01DX Z (ip), vehicle: carboxymethylcellulose (CMC)); 6 of 6 (dose: 5.0 mg/kg/injection, schedule: Q01DX010 (ip), vehicle: other); 6 of 6 (dose: 10.0 mg/kg/injection, schedule: Q01DX010 (ip), vehicle: other).

Consider `CC1CCOS(=O)O1` (stereo unspecified), for which the survivor count (dose: 1.25 mg/kg/injection, schedule: Q01DX Z (ip), vehicle: carboxymethylcellulose (CMC)) is 6 of 6; the survivor count (dose: 10.0 mg/kg/injection, schedule: Q01DX Z (ip), vehicle: carboxymethylcellulose (CMC)) was 6 of 6; the survivor count (dose: 20.0 mg/kg/injection, schedule: Q01DX Z (ip), vehicle: carboxymethylcellulose (CMC)) is listed as 6 of 6; the survivor count (dose: 40.0 mg/kg/injection, schedule: Q01DX Z (ip), vehicle: carboxymethylcellulose (CMC)) is listed as 6 of 6; the survivor count under setting [4] is given as 6 of 6; the survivor count (dose: 80.0 mg/kg/injection, schedule: Q01DX Z (ip), vehicle: carboxymethylcellulose (CMC)) is given as 6 of 6.

`C[C@]12CC[C@H](OC3OC(CO)C(O)C(O)C3O)C[C@H]1CC[C@@H]1[C@@H]2CC[C@]2(C)[C@@H](C3=CCOC3=O)CC[C@]12O` (stereo partly specified): the survivor count (dose: 2.0 mg/kg/injection, schedule: Q01DX Z (ip), vehicle: saline) is listed as 6 of 6 and the survivor count (dose: 4.0 mg/kg/injection, schedule: Q01DX Z (ip), vehicle: saline) is recorded as 6 of 6.

On to `NC(Cc1ccc(N(CCCl)CCCl)cc1)C(=O)O` (stereo unspecified), for which the T/C is 140 % of control (dose: 2.5 mg/kg/injection, schedule: Q01DX Z (ip), vehicle: carboxymethylcellulose (CMC)); 130 % of control (dose: 5.0 mg/kg/injection, schedule: Q01DX010 (ip), vehicle: saline); 144 % of control (dose: 10.0 mg/kg/injection, schedule: Q01DX010 (ip), vehicle: saline). Further, for the setting “dose: 20.0 mg/kg/injection, schedule: Q01DX010 (ip), vehicle: saline”, the survivor count was 6 of 6.

For `C=CC(CN1CC1)OC(C)=O` (stereo unspecified), under “dose: 2.0 mg/kg/injection, schedule: Q01DX010 (ip), vehicle: saline”, the T/C was 135 % of control. The survivor count (dose: 7.5 mg/kg/injection, schedule: Q01DX Z (ip), vehicle: carboxymethylcellulose (CMC)) is on record as 6 of 6 and the survivor count (dose: 15.0 mg/kg/injection, schedule: Q01DX Z (ip), vehicle: carboxymethylcellulose (CMC)) is reported as 2 of 6.

Consider `CCn1cnc2c(=S)nc[nH]c21`, for which the T/C under setting [5] is 127 % of control. The survivor count (dose: 250.0 mg/kg/injection, schedule: Q01DX Z (ip), vehicle: carboxymethylcellulose (CMC)) is given as 4 of 6.

Regarding `COc1cc2c(cc1I)-c1c(cc(OC)c(OC)c1OC)CC[C@@H]2NC(C)=O`, the survivor count runs as follows: (dose: 338.0 mg/kg/injection, schedule: Q01DX010 (ip), vehicle: saline) 4 of 6; (dose: 507.0 mg/kg/injection, schedule: Q01DX010 (ip), vehicle: saline) 5 of 6.

Consider `CS(=O)(=O)OCCCCOS(C)(=O)=O`, for which the survivor count is listed as 6 of 6 (dose: 0.19 mg/kg/injection, schedule: Q01DX Z (ip), vehicle: methylcellulose (MC)); 6 of 6 (dose: 3.12 mg/kg/injection, schedule: Q01DX Z (ip), vehicle: methylcellulose (MC)); 6 of 6 under setting [1]; 6 of 6 (dose: 12.5 mg/kg/injection, schedule: Q01DX Z (ip), vehicle: methylcellulose (MC)); 5 of 6 (dose: 100.0 mg/kg/injection, schedule: Q01DX Z (ip), vehicle: methylcellulose (MC)).

Turning to `CCOC(N)=O`, the survivor count is 6 of 6 (dose: 31.25 mg/kg/injection, schedule: Q01DX Z (ip), vehicle: saline); 6 of 6 (dose: 62.5 mg/kg/injection, schedule: Q01DX Z (ip), vehicle: saline); 6 of 6 (dose: 1000.0 mg/kg/injection, schedule: Q01DX010 (ip), vehicle: saline); 6 of 6 (dose: 1000.0 mg/kg/injection, schedule: Q01DX Z (ip), vehicle: saline).

In the case of `NC(=O)c1cn(C2OC(CO)C(O)C2O)c2ncnc(N)c12` (stereo unspecified), the T/C under setting [2] is 149 % of control. Also, the survivor count was 6 of 6 under setting [3] and 3 of 6 (dose: 1.0 mg/kg/injection, schedule: Q01DX Z (ip), vehicle: carboxymethylcellulose (CMC)).

`CN1CC[C@]23c4c5ccc(O)c4O[C@H]2C(=O)CC[C@H]3[C@H]1C5`: the survivor count (dose: 32.0 mg/kg/injection, schedule: Q01DX010 (ip), vehicle: saline) was 6 of 6.

As for `Cc1cc(N(CCCl)CCCl)ccc1N=Nc1ccccc1C(=O)O`, the survivor count is given as 6 of 6 (dose: 40.0 mg/kg/injection, schedule: Q01DX010 (ip), vehicle: saline); 3 of 6 (dose: 60.0 mg/kg/injection, schedule: Q01DX Z (ip), vehicle: carboxymethylcellulose (CMC)); 6 of 6 under setting [4].

With `O=c1cn[nH]c(=O)[nH]1`, the T/C was 131 % of control [5 of 6 alive] under setting [6]; 141 % of control (dose: 31.25 mg/kg/injection, schedule: Q01DX Z (ip), vehicle: carboxymethylcellulose (CMC)); 137 % of control (dose: 62.5 mg/kg/injection, schedule: Q01DX Z (ip), vehicle: carboxymethylcellulose (CMC)). In addition, the survivor count under setting [6] is given as 6 of 6 and the survivor count under setting [5] is 6 of 6.

As to `Cn1cc(NC(=O)c2cc(NC(=O)CN=C(N)N)cn2C)cc1C(=O)NCCC(=N)N`, the survivor count (dose: 50.0 mg/kg/injection, schedule: Q01DX Z (ip), vehicle: saline) is 2 of 6.

On to `CC(=O)O[C@]1(C(C)=O)CC[C@H]2[C@@H]3C[C@H](C)C4=CC(=O)C=C[C@]4(C)[C@@]3(F)[C@@H](O)C[C@@]21C`, for which the T/C (dose: 80.0 mg/kg/injection, schedule: Q01DX Z (sc), vehicle: steroid suspending solution) was 128 % of control.
